# Measurements reported in PubChem BioAssay AID652272 (Drosophila RNAi Screening Center, 2013)
# Screen: 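Genes whose knock-down decreases or increases Hedgehog reporter output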 (primary screen)
# Cell system: Drosophila clone 8 (Cl8) cells
# Reagent: long dsRNA against Drosophila genes
# Detection: 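Firefly light from a Hedgehog-responsive ptc promoter reporter and Renilla reference light, both read on a plate reader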
# Direction: firefly Hh reporter signal: higher = more ptc reporter light; Renilla reference signal: higher = more Renilla control light
# Rule for the call: 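Hit when the z-score averaged over two replicates is under -2 or over +3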
# Calls: active = hit: reporter lowered or raised; inactive = not a hit
# The screen tested about 21,000 reagents; below is a random part of those with a known target gene and a result. In the full data, 503 (2.4%) were called active. 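Raw plate light values, not normalised; calls rest on replicate z-scores that were not deposited; hits include reporter decreases as well as increases.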 Reagents against one gene are numbered here. A plus sign joins genes that one reagent is predicted to hit. Reagent sequences are not shown. The record does not give: the amount of reagent, the time to read-out.
gene knocked down,reagent,"firefly Hh reporter signal, replicate 1","firefly Hh reporter signal, replicate 2","firefly Hh reporter signal, replicate 3","Renilla reference signal, replicate 1","Renilla reference signal, replicate 2",outcome
cysu (GeneID 42100),1,75409,83846,,1888,1996,inactive
MED22 (GeneID 31038),1,53880,1.65e5,,2053,7200,inactive
dmpd (GeneID 36061),1,64208,48522,,3099,2017,inactive
Men (GeneID 47173),1,31556,2.14e5,,5203,2689,inactive
Men (GeneID 47173),2,1.93e5,5.23e5,1.99e5,7675,4567,inactive
CG15143 (GeneID 35062),1,1.01e5,65229,,2456,6176,inactive
arx (GeneID 40061),1,67245,79780,,2981,3596,inactive
ATPsynO (GeneID 41845),1,1.41e5,1.05e5,,5234,3900,inactive
EMC7 (GeneID 36767),1,63571,67833,,780,4866,inactive
byn (GeneID 39349),1,49721,64081,1.05e5,6146,7634,inactive
eIF2A (GeneID 40431),1,97808,99335,,4057,4081,inactive
CG16812 (GeneID 34722),1,72592,56928,,3056,2416,inactive
mRpL15 (GeneID 40261),1,1.18e5,1.34e5,,4832,5060,inactive
CG5126 (GeneID 33306),1,98267,83963,,4155,3851,inactive
CG8369 (GeneID 50005),1,76466,76871,,3010,2796,inactive
CG14626 (GeneID 31064),1,57040,1.82e5,,1818,6924,inactive
esc (GeneID 34595),1,90208,50737,,3507,2365,inactive
CG8888 (GeneID 36293),1,1.08e5,73233,,4662,3296,inactive
CG8888 (GeneID 36293),2,98989,71826,,1620,5632,inactive
CG33136 (GeneID 318894),1,1.23e5,1.41e5,,3555,7316,inactive
CG13713 (GeneID 59233),1,81924,61692,,7831,4648,inactive
Act57B (GeneID 37368),1,74934,28906,,2813,1253,inactive
CG3408 (GeneID 39107),1,12496,41273,46044,5136,3830,inactive
Nup98-96 (GeneID 42816),1,37044,19188,,2098,1520,active
Nup98-96 (GeneID 42816),2,2.29e5,25676,,17442,1629,active
CG5882 (GeneID 43269),1,87258,1.11e5,,3241,3081,inactive
CG42788 (GeneID 41817),1,80722,80038,,2265,2473,inactive
CG42788 (GeneID 41817),2,68192,1.00e5,,2368,2916,inactive
CG42788 (GeneID 41817),3,50247,87416,,1175,2260,inactive
ppk16 (GeneID 3885612),1,78252,38290,,1804,3810,inactive
CG4250 (GeneID 37599),1,1.08e5,55271,,2889,4964,inactive
CG5758 (GeneID 35083),1,63243,5.18e5,34685,2369,31357,active
CG5758 (GeneID 35083),2,86106,60249,,2589,5418,inactive
CG32198 (GeneID 317909),1,1.83e5,,,3843,,inactive
nkt (GeneID 39264),1,59866,53297,77005,5417,5746,inactive
Hil (GeneID 37328),1,1.55e5,1.12e5,,6896,5008,inactive
Hil (GeneID 37328),2,1.07e5,55532,,3552,4169,inactive
CG10877 (GeneID 42432),1,5.64e5,1.05e5,,29851,2688,inactive
Klp3A (GeneID 31240),1,1.39e5,1.17e5,,3109,4999,inactive
CG14180 (retired record) (GeneID 39101),1,33819,26176,23805,5379,2299,active
CG13055 (GeneID 39779),1,1.43e5,,,5232,3728,inactive
Nnf1a (GeneID 37325),1,60080,41267,,2176,2939,inactive
Rgk2 (GeneID 37132),1,93111,60044,,2797,4336,inactive
CG13305 (GeneID 38992),1,40680,35620,,4664,2529,inactive
CG15579 (GeneID 50380),1,93092,2.05e5,,3444,7213,inactive
Gar1 (GeneID 37397),1,1.26e5,46461,,3069,3766,inactive
GstE12 (GeneID 37960),1,80070,50832,,2106,3056,inactive
PGRP-LD + Cralbp + Pmi,1,55545,44515,,6876,3952,inactive
Gfat1 (GeneID 3354921),1,64066,1.87e5,,1431,7552,inactive
Kpc2 (GeneID 37261),1,1.21e5,59723,,3341,4378,inactive
HPS4 (GeneID 37009),1,69670,38871,,2018,2962,inactive
CG1907 (GeneID 43483),1,1.22e5,1.05e5,,2992,3003,inactive
ATP8A (GeneID 36488),1,1.27e5,2.16e5,,3169,8853,inactive
ATP8A (GeneID 36488),2,88188,62624,,3732,2784,inactive
ATP8A (GeneID 36488),3,52217,54426,,1408,3604,inactive
CG2906 (GeneID 35753),1,95634,58386,,2388,5078,inactive
Dro (GeneID 36635),1,1.39e5,85510,,3616,6137,inactive

3 entries from above in another layout:
{"gene knocked down":"Gfat1 (GeneID 3354921)","reagent":1,"firefly Hh reporter signal, replicate 1":64066,"firefly Hh reporter signal, replicate 2":1.87e5,"Renilla reference signal, replicate 1":1431,"Renilla reference signal, replicate 2":7552,"outcome":"inactive"}
{"gene knocked down":"Kpc2 (GeneID 37261)","reagent":1,"firefly Hh reporter signal, replicate 1":1.21e5,"firefly Hh reporter signal, replicate 2":59723,"Renilla reference signal, replicate 1":3341,"Renilla reference signal, replicate 2":4378,"outcome":"inactive"}
{"gene knocked down":"HPS4 (GeneID 37009)","reagent":1,"firefly Hh reporter signal, replicate 1":69670,"firefly Hh reporter signal, replicate 2":38871,"Renilla reference signal, replicate 1":2018,"Renilla reference signal, replicate 2":2962,"outcome":"inactive"}
